Measurements as given in publication PMC9687146.
No constants are given. Whether binding was seen depends on the method and setting. Binding seen in cells or lysates may run through a third protein. Some entries that bind do so weakly or less than the wild type.

By UniProt entry, the sequences of proteins in these tests, tags left out. Residues count along the entry.
UniProt P11021, residues 19-654: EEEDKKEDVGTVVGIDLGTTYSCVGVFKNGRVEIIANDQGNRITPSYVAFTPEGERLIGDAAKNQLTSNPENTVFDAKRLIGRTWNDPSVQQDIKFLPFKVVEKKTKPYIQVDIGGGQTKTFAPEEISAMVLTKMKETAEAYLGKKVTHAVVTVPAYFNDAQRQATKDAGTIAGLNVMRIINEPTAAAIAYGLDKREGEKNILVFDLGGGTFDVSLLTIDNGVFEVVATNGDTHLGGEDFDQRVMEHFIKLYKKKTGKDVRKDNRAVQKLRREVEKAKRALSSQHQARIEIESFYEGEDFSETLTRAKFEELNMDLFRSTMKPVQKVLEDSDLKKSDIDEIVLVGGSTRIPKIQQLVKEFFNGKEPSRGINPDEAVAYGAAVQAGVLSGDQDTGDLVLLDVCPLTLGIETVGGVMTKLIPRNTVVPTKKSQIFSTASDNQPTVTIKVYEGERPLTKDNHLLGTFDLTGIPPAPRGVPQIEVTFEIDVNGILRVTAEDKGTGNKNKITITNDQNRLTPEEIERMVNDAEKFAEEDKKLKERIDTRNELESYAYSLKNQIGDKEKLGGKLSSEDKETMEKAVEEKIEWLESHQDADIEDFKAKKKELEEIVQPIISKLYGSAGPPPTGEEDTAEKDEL

Biological target: T1, MTJ1 (human (endogenous in H460)) (UniProt Q96KC8)
T1 sequence: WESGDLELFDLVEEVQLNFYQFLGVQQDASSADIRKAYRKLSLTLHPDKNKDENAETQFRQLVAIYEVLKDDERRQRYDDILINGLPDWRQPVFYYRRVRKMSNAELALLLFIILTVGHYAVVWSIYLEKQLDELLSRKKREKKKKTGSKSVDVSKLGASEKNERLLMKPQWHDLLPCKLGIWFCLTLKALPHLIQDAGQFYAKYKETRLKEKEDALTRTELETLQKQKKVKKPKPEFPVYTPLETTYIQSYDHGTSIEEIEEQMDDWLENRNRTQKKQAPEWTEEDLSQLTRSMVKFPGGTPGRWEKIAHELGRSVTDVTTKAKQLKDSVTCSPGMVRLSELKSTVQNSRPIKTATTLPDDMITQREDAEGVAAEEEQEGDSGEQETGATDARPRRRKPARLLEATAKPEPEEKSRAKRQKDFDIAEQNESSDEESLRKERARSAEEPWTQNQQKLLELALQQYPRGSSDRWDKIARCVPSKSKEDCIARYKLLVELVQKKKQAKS
Assay: co-IP; Dynabeads Protein G with anti-GRP78 or anti-MTJ1 antibody; RIPA lysates of H460 cells, untreated or treated with 5 µM cisplatin for 6 days (senescent); 4 °C overnight; Western blot for MTJ1 or GRP78

- binding: binds
Substance: Glucose-regulated protein 78 (GRP78) (from UniProt P11021 19-654)
